Experimental data: PMC8316002, “Inhibition of Escherichia coli Lipoprotein Diacylglyceryl Transferase Is Insensitive to Resistance Caused by Deletion of Braun’s Lipoprotein” (Journal of Bacteriology, 2021)

Test system: E. coli Lgt-biotin
Test: Macrocyclic peptide library affinity selection (mRNA display) with NGS
Assay type: binding
Conditions: after five rounds of enrichment plus two off-rate rounds; 0.02% DDM, 250 nM biotinylated Lgt

Row | Substance | fraction of peptide sequences in final round of selection by NGS [%]
1 | ClAcf-Asp-Gly-Bph-MeF-Bph-Ser-Arg-Cys-Gly-NH2 (sidechain bridge or staple) [compound 693, original hit macrocycle identified in the library screen] | 10.1
2 | ClAcf-Arg-Gly-Bph-MeF-Bph-Ser-Arg-Cys-Gly-NH2 (sidechain bridge or staple) [compound 692, original hit macrocycle identified in the library screen] | 19.4
